## Assay results

The results are deposited in PubChem (AID504749; NCATS, 2011).

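Malaria parasite (P. falciparum) lines kept in red blood cells; parasite DNA is measured by SYBR Green fluorescence after lysis, 72 h after compound addition. Each compound was titrated across a series from about 0.000037 to 29 µM. The number is the fitted AC50, the concentration giving a half-maximal change in signal; a lower value means higher potency, whether the curve shows a decrease or an increase. Calls follow the curve class and fit quality: every row here is inconclusive, covering signal-raising curves and weak, poorly fitted, partial or highest-dose-only inhibition curves.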

Values are in µM. Every entry below has the call inconclusive. Only part of the assay is shown, chiefly results filed as inconclusive. A potency from a partial, single-point or poor curve is only a rough figure.

SMILES	condition	potency (µM)	remark
CC(COc1ccccc1)N(CCCl)Cc1ccccc1 (centres undefined)	CP238	11.22	inhibitor, partial curve
CC(COc1ccccc1)N(CCCl)Cc1ccccc1 (centres undefined)	CP265	7.943	inhibitor, partial curve
CC(COc1ccccc1)N(CCCl)Cc1ccccc1 (centres undefined)	CP286	10	inhibitor, single point
CC(COc1ccccc1)N(CCCl)Cc1ccccc1 (centres undefined)	ATS95	12.59	inhibitor, single point
CC(COc1ccccc1)N(CCCl)Cc1ccccc1 (centres undefined)	P94_40	12.59	inhibitor, single point
CC(COc1ccccc1)N(CCCl)Cc1ccccc1 (centres undefined)	CP297	7.569	inhibitor, partial curve
CC(COc1ccccc1)N(CCCl)Cc1ccccc1 (centres undefined)	DIV30	2.686	inhibitor, partial curve, poor fit
CC(COc1ccccc1)N(CCCl)Cc1ccccc1 (centres undefined)	P93_24	8.912	inhibitor, partial curve
CC(COc1ccccc1)N(CCCl)Cc1ccccc1 (centres undefined)	CP260	11.22	inhibitor, single point
CC(COc1ccccc1)N(CCCl)Cc1ccccc1 (centres undefined)	TAB165	8.912	inhibitor, single point
CC(COc1ccccc1)N(CCCl)Cc1ccccc1 (centres undefined)	GB4	4.776	inhibitor, partial curve
CC(COc1ccccc1)N(CCCl)Cc1ccccc1 (centres undefined)	AA1029	6.31	inhibitor, partial curve
CC(COc1ccccc1)N(CCCl)Cc1ccccc1 (centres undefined)	CP215	3.793	inhibitor, partial curve, poor fit
CC(COc1ccccc1)N(CCCl)Cc1ccccc1 (centres undefined)	CP203	15.1	inhibitor, single point
CC(COc1ccccc1)N(CCCl)Cc1ccccc1 (centres undefined)	Dd2	12.59	inhibitor, partial curve
CC(COc1ccccc1)N(CCCl)Cc1ccccc1 (centres undefined)	CP194	8.492	inhibitor, partial curve
Cc1c(Cl)c(=O)oc2cc(OP(=O)(OCCCl)OCCCl)ccc12	CP266	15.1	inhibitor, single point
Cc1c(Cl)c(=O)oc2cc(OP(=O)(OCCCl)OCCCl)ccc12	3D7	11.22	inhibitor, single point
Cc1c(Cl)c(=O)oc2cc(OP(=O)(OCCCl)OCCCl)ccc12	JCK	11.22	inhibitor, single point
Cc1c(Cl)c(=O)oc2cc(OP(=O)(OCCCl)OCCCl)ccc12	CP335	13.46	inhibitor, single point
Cc1c(Cl)c(=O)oc2cc(OP(=O)(OCCCl)OCCCl)ccc12	PC26	13.46	inhibitor, partial curve
Cc1c(Cl)c(=O)oc2cc(OP(=O)(OCCCl)OCCCl)ccc12	DIV17	16.94	inhibitor, single point
Cc1c(Cl)c(=O)oc2cc(OP(=O)(OCCCl)OCCCl)ccc12	PAD	11.22	inhibitor, single point
Cc1c(Cl)c(=O)oc2cc(OP(=O)(OCCCl)OCCCl)ccc12	CP185	10	inhibitor, single point
Cc1c(Cl)c(=O)oc2cc(OP(=O)(OCCCl)OCCCl)ccc12	CP315	15.1	inhibitor, single point
Cc1c(Cl)c(=O)oc2cc(OP(=O)(OCCCl)OCCCl)ccc12	CP260	10	inhibitor, single point
Cc1c(Cl)c(=O)oc2cc(OP(=O)(OCCCl)OCCCl)ccc12	CP192	13.46	inhibitor, single point
Cc1c(Cl)c(=O)oc2cc(OP(=O)(OCCCl)OCCCl)ccc12	Dd2	10	inhibitor, single point
Cc1c(Cl)c(=O)oc2cc(OP(=O)(OCCCl)OCCCl)ccc12	CP247	10	inhibitor, single point
Cc1c(Cl)c(=O)oc2cc(OP(=O)(OCCCl)OCCCl)ccc12	DIV30	15.1	inhibitor, single point
CN1CCC(O)(c2ccc(F)cc2)C(C(=O)c2ccc(F)cc2)C1 (centres undefined)	W2	19.01	inhibitor, single point
CN1CCC(O)(c2ccc(F)cc2)C(C(=O)c2ccc(F)cc2)C1 (centres undefined)	CP260	11.22	inhibitor, single point
CN1CCC(O)(c2ccc(F)cc2)C(C(=O)c2ccc(F)cc2)C1 (centres undefined)	P93_24	10	inhibitor, single point
CC1CCC(C(C)C)C(OC(=O)c2ccccc2N)C1 (centres undefined)	TAB165	17.78	inhibitor, single point
CC1CCC(C(C)C)C(OC(=O)c2ccccc2N)C1 (centres undefined)	W2	19.01	inhibitor, single point
CC1CCC(C(C)C)C(OC(=O)c2ccccc2N)C1 (centres undefined)	PC15	17.78	inhibitor, single point
CC1CCC(C(C)C)C(OC(=O)c2ccccc2N)C1 (centres undefined)	Dd2	17.78	inhibitor, single point
CC1CCC(C(C)C)C(OC(=O)c2ccccc2N)C1 (centres undefined)	ICS	17.78	inhibitor, single point
CC1CCC(C(C)C)C(OC(=O)c2ccccc2N)C1 (centres undefined)	HB3	15.85	inhibitor, single point
CC1CCC(C(C)C)C(OC(=O)c2ccccc2N)C1 (centres undefined)	ATS95	17.78	inhibitor, single point
CC1CCC(C(C)C)C(OC(=O)c2ccccc2N)C1 (centres undefined)	ATS189	17.78	inhibitor, single point